Test results reported in patent publication US6080724A, “Peptides which can be used as vectors for the intracellular addressing of active molecules” (Centre National de la Recherche Scientifique (CNRS), priority 1995, dated 2000).
Where two headings read alike, the source gives them in different places. At least one peptide structure holds a part that was inferred or is arguable (an end, a ring closure or a residue). Some compounds share one wording; it may come from a single statement. Residues, ends and D or L forms follow the SMILES beside them. *: point of attachment. Biotin = O=C1N[C@H]2[C@H](CS[C@H]2CCCCC(=O)*)N1; Ava = NCCCCC(=O)O

How the values were obtained:
[1] = test system: E15 cortex and striatum cells; experiment: Cellular localization of biotinylated peptides by confocal microscopy (fluorescent streptavidin); assay type: cell-based; conditions: 2 h
Procedure: The cells were then washed, fixed and stained with fluorescent streptavidin.
The entry of the peptides of Table II was tested only by confocal microscopy; indeed, the absence of lysine in these peptides makes the attachments very difficult and therefore requires a very rapid observation which is incompatible with transfers onto filters or ELISA tests (multiple washes).
The E15 cortex and striatum cells are cultured on glass coverslips at a density of 25,000 cells/cm^2 for 2 days. The peptides are all added at a final concentration of 20 μM. […] The sections observed by confocal microscopy are presented in FIGS. 3 (37° C.) and 4 (4° C.). The cells which have integrated the peptide appear fluorescent, on a black background.
E15 cortex and striatum cells are cultured on glass coverslips at a density of 25,000 cells/cm^2 for 2 days. The peptides are added at a final concentration of 20 μM for peptide 43-58 and of 2 μM for the others and the cells are incubated for 2 h at 37° C. […] The results are illustrated in FIG. 6.

[2] = test system: E15 embryonic cortex cells; conditions: 2 h, 44 μM, cells washed with trypsin
[3] = listed as peptide comprising amino acids 41 to 55 of the homeodomain; cited from earlier work

Q: For CC[C@H](C)[C@H](NC(=O)[C@H](CCCCN)NC(=O)[C@@H](NC(=O)[C@H](CCC(N)=O)NC(=O)[C@H](CCCNC(=N)N)NC(=O)CCCCNC(=O)CCCC[C@@H]1SC[C@@H]2NC(=O)N[C@@H]21)[C@@H](C)CC)C(=O)N[C@@H](Cc1c[nH]c2ccccc12)C(=O)N[C@@H](Cc1ccccc1)C(=O)N[C@@H](CCC(N)=O)C(=O)N[C@@H](CC(N)=O)C(=O)N[C@@H](CCCNC(=N)N)C(=O)N[C@@H](CCCNC(=N)N)C(=O)N[C@@H](CCSC)C(=O)N[C@@H](CCCNC(=N)N)C(=O)N[C@@H](Cc1c[nH]c2ccccc12)C(=O)N[C@@H](CCCNC(=N)N)C(=O)N[C@@H](CCCNC(=N)N)C(=O)O [7Arg, Biot-Apa-Arg-Gln-Ile-Lys-Ile-Trp-Phe-Gln-Asn-Arg-Arg-Met-Arg-Trp-Arg-Arg] ({Biotin-Ava}-RQIKIWFQNRRMRWRR-OH), which “internalization and cytoplasmic and nuclear addressing (localization)” value ([1]; 2 μM, 37° C., streptavidin-FITC) is on record?
A: The value was “Internalization and cytoplasmic and nuclear addressing”.

Q: What does the source list for CC[C@H](C)[C@H](NC(=O)[C@H](CCCCN)NC(=O)[C@@H](NC(=O)[C@H](CCC(N)=O)NC(=O)[C@H](CCCNC(=N)N)NC(=O)[C@H](CCC(=O)O)NC(=O)[C@@H](NC(=O)CCCCNC(=O)CCCC[C@@H]1SC[C@@H]2NC(=O)N[C@@H]21)[C@@H](C)O)[C@@H](C)CC)C(=O)N[C@@H](Cc1c[nH]c2ccccc12)C(=O)N[C@@H](Cc1ccccc1)C(=O)N[C@@H](CCC(N)=O)C(=O)N[C@@H](CC(N)=O)C(=O)N[C@@H](CCCNC(=N)N)C(=O)N[C@@H](CCCNC(=N)N)C(=O)N[C@@H](CCSC)C(=O)N[C@@H](CCCCN)C(=O)O [41-55, Biot-Apa-Thr-Glu-Arg-Gln-Ile-Lys-Ile-Trp-Phe-Gln-Asn-Arg-Arg-Met-Lys] ({Biotin-Ava}-TERQIKIWFQNRRMK-OH)?
A: internalized and recovered in the cells ([2]; 4° C.): with the exception of 41-55; internalized and recovered in the cells ([2]; 37° C.): with the exception of 41-55; internalization [3]: not internalized

Q: With CC[C@H](C)[C@H](NC(=O)[C@H](CCCCN)NC(=O)[C@@H](NC(=O)[C@H](CCC(N)=O)NC(=O)[C@H](CCCNC(=N)N)NC(=O)CCCCNC(=O)CCCC[C@@H]1SC[C@@H]2NC(=O)N[C@@H]21)[C@@H](C)CC)C(=O)N[C@@H](Cc1c[nH]c2ccccc12)C(=O)N[C@@H](Cc1ccccc1)C(=O)N1CCC[C@H]1C(=O)N[C@@H](CC(N)=O)C(=O)N[C@@H](CCCNC(=N)N)C(=O)N[C@@H](CCCNC(=N)N)C(=O)N[C@@H](CCSC)C(=O)N[C@@H](CCCCN)C(=O)N[C@@H](Cc1c[nH]c2ccccc12)C(=O)N[C@@H](CCCCN)C(=O)N[C@@H](CCCCN)C(=O)O [Pro50, Biot-Apa-Arg-Gln-Ile-Lys-Ile-Trp-Phe-Pro-Asn-Arg-Arg-Met-Lys-Trp-Lys-Lys] ({Biotin-Ava}-RQIKIWFPNRRMKWKK-OH) as the compound, how does the internalization ([1]; 20 μM, 37° C. and 4° C.) read?
A: The internalization was “does not prevent internalization”.

Q: What about the nuclear addressing ([1]; 20 μM, 37° C. and 4° C.) of the same compound?
A: The nuclear addressing was “appears to interfere with nuclear addressing”.
